Reference: paper doi:10.1101/2025.05.24.655882
No constants are given. Whether binding was seen depends on the method and setting. Binding seen in cells or lysates may run through a third protein. For some assays here: Binding calls can cover weak binding; strength is not graded here. Tags and fused reporters may be left off the sequences shown. Values belong to the binder of their own block, whether it stands above or below them.

Amino acid sequences for entries named in this document (tags omitted). A change or cut given only in a name is not applied to a line headed by its entry.
UniProt P53855: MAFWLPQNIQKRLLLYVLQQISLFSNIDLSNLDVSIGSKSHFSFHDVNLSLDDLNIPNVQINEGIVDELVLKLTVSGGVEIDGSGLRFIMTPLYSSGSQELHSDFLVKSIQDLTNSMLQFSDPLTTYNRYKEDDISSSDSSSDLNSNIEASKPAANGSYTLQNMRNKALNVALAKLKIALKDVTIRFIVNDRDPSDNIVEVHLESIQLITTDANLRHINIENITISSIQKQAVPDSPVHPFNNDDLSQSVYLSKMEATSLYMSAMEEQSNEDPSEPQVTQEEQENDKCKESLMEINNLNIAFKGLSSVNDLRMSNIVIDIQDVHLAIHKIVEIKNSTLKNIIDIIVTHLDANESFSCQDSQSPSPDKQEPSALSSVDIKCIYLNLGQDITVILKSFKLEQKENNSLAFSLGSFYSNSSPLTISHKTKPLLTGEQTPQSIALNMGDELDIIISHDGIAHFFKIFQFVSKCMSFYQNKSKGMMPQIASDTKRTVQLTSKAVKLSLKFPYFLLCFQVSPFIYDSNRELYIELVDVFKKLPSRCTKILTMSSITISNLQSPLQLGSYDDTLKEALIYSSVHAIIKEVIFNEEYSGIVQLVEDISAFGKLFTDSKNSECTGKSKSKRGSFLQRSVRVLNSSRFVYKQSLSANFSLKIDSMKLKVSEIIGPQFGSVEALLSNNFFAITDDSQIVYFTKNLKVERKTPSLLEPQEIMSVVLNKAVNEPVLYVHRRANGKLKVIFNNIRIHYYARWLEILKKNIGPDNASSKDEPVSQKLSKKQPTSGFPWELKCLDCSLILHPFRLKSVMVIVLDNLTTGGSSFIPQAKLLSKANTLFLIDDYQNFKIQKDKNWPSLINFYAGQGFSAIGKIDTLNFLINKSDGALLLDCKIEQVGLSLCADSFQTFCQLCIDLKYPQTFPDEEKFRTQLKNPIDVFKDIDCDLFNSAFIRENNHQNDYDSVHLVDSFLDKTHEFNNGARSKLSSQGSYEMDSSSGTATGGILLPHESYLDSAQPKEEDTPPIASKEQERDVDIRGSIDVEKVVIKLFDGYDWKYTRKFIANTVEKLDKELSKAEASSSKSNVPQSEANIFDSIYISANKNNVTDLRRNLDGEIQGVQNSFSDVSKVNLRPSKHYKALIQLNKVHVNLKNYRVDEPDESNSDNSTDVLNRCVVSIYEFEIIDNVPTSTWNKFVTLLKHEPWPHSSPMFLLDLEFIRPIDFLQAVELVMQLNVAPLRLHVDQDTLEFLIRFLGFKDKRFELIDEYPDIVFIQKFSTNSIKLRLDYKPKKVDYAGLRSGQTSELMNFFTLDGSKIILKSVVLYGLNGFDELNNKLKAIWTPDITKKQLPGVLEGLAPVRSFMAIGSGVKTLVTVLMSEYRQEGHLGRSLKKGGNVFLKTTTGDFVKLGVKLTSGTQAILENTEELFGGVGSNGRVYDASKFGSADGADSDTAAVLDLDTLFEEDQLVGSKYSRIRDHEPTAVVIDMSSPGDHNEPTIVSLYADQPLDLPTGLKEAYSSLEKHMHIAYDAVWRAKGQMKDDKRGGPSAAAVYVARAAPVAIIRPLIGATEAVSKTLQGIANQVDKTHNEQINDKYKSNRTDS

Columns and labels:
Test in all cases: co-IP
[1] = molecular target: Atg2^ΔARCH1 (–HA–EGFP) (S. cerevisiae) (UniProt P53855)
[2] = molecular target: Atg2^ΔARCH5 (–HA–EGFP) (S. cerevisiae) (UniProt P53855)
[3] = molecular target: Atg2^ΔARCH6 (–HA–EGFP) (S. cerevisiae) (UniProt P53855)

binding [1]: binds
binding [2]: no binding
binding [3]: no binding
B1: Atg18 (co-precipitated with Atg2–HA–EGFP) (protein, UniProt P43601 1-500)
chain: MSDSSPTINFINFNQTGTCISLGTSKGFKIFNCEPFGKFYSEDSGGYAIVEMLFSTSLLALVGIGDQPALSPRRLRIINTKKHSIICEVTFPTSILSVKMNKSRLVVLLQEQIYIYDINTMRLLHTIETNPNPRGLMAMSPSVANSYLVYPSPPKVINSEIKAHATTNNITLSVGGNTETSFKRDQQDAGHSDISDLDQYSSFTKRDDADPTSSNGGNSSIIKNGDVIVFNLETLQPTMVIEAHKGEIAAMAISFDGTLMATASDKGTIIRVFDIETGDKIYQFRRGTYATRIYSISFSEDSQYLAVTGSSKTVHIFKLGHSMSNNKLDSDDSNMEEAAADDSSLDTTSIDALSDEENPTRLAREPYVDASRKTMGRMIRYSSQKLSRRAARTLGQIFPIKVTSLLESSRHFASLKLPVETNSHVMTISSIGSPIDIDTSEYPELFETGNSASTESYHEPVMKMVPIRVVSSDGYLYNFVMDPERGGDCLILSQYSILMD

binding [1]: binds
binding [3]: no binding
B2: Atg9 (protein, UniProt Q12142 1-997)
chain: MERDEYQLPNSHGKNTFLSRIFGLQSDEVNPSLNSQEMSNFPLPDIERGSSLLHSTNDSREDVDENDLRVPESDQGTSTEEEDEVDEEQVQAYAPQISDGLDGDHQLNSVTSKENVLETEKSNLERLVEGSTDDSVPKVGQLSSEEEEDNEFINNDGFDDDTPLFQKSKIHEFSSKKSNTIEDGKRPLFFRHILQNNRPQRDTQKLFTSSNAIHHDKDKSANNGPRNINGNQKHGTKYFGSATQPRFTGSPLNNTNRFTKLFPLRKPNLLSNISVLNNTPEDRINTLSVKERALWKWANVENLDIFLQDVYNYYLGNGFYCIILEKILNICTLLFVVFVSTYMGHCVDYSKLPTSHRVSDIIIDKCYSNSITGFTKFFLWMFYFFVILKIVQLYFDVQKLSELQNFYKYLLNISDDELQTLPWQNVIQQLMYLKDQNAMTANVVEVKAKNRIDAHDVANRIMRRENYLIALYNSDILNLSLPIPLFRTNVLTKTLEWNINLCVMGFVFNESGFIKQSILKPSQREFTREELQKRFMLAGFLNIILAPFLVTYFVLLYFFRYFNEYKTSPGSIGARQYTPIAEWKFREYNELYHIFKKRISLSTTLANKYVDQFPKEKTNLFLKFVSFICGSFVAILAFLTVFDPENFLNFEITSDRSVIFYITILGAIWSVSRNTITQEYHVFDPEETLKELYEYTHYLPKEWEGRYHKEEIKLEFCKLYNLRIVILLRELTSLMITPFVLWFSLPSSAGRIVDFFRENSEYVDGLGYVCKYAMFNMKNIDGEDTHSMDEDSLTKKIAVNGSHTLNSKRRSKFTAEDHSDKDLANNKMLQSYVYFMDDYSNSENLTGKYQLPAKKGYPNNEGDSFLNNKYSWRKQFQPGQKPELFRIGKHALGPGHNISPAIYSTRNPGKNWDNNNNGDDIKNGTNNATAKNDDNNGNNDHEYVLTESFLDSGAFPNHDVIDHNKMLNSNYNGNGILNKGGVLGLVKEYYKKSDVGR
